In the supplement of paper PMC3334620:
In all, about 33,000 sequences were measured (“E-score (-0.5 to 0.5)”: median about -0.015, highest 2% from about 0.3 on). This is one part of the list.

molecular target: T1, Abf1 (UniProt P14164); experiment: PBM E-score (8-mer binding enrichment) (E-score (-0.5 to 0.5)); higher = stronger / more preferred TF binding; conditions: protein concentration: 200 nM; construct: GST-full length
T1 sequence: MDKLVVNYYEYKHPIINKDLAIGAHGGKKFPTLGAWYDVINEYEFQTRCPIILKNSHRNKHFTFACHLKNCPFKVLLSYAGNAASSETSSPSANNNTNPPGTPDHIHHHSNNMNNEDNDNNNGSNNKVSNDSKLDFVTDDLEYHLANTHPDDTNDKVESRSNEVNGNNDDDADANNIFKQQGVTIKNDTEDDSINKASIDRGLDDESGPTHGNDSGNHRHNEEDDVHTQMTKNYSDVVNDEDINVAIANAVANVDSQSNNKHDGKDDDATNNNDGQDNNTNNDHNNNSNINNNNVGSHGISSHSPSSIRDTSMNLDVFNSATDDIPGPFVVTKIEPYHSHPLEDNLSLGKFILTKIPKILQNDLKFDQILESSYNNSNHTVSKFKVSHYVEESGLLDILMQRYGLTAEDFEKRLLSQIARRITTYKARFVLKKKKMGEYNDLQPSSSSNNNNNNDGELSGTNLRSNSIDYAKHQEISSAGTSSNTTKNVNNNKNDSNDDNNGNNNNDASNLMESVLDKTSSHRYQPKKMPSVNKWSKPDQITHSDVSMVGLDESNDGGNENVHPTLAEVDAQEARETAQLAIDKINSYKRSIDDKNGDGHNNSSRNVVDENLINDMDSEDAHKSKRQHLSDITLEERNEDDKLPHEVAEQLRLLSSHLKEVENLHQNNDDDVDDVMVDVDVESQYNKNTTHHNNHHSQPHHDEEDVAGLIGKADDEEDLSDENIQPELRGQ
In short: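 For each ungapped eight-base word taken together with its reverse complement, the Universal PBM Analysis Suite assigned an E-score. Binding data came from GST-tagged yeast transcription factors, applied at about 100-200 nM, on universal all-10-mer Agilent arrays made double-stranded by primer extension. Fluorescent anti-GST marked bound protein, and scans were normalised with masliner.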

Sequence	PBM E-score
CACATCTA	0.0401
AGAACCGA	0.107
GCGACCAC	0.134
CGTATCCC	0.111
AGAACCAG	-0.0804
GGTTCAAA	0.0158
ATTAAGTG	0.092
CGCACCAG	-0.0988
CAGGAATC	0.158
TATAATGA	0.125
ATTTCATC	0.0735
GCGCCACC	-0.177
GCGCGGGA	-0.00898
GCAGCAGA	-0.205
ATCTGTGG	-0.257
GCGTTACA	0.171
ATTCCGGA	0.0747
GCAAAAAA	0.0891
GAAAAAGA	-0.00194
GCCCTGTA	-0.214
AGTACTTC	-0.0726
ATAATCCG	-0.0846
GTTTTCTA	-0.0572
AGTCGTAG	0.14
GCGTTTCC	-0.162

Sequence	PBM E-score
GCATATTA	0.203
CCTTGGCC	-0.371
CAACGCTC	0.0635
CAGAGGAG	-0.0726
ATTGGCCG	-0.117
CCTTTCAC	0.11
AGCGTGAT	0.265
GTACGTCA	0.286
TACAGGAA	-0.0455
CTACCTTA	-0.2
ATGATTCG	0.083
GAGTTCTA	0.0306
CAGACGCC	-0.155
ATTTGCAG	0.147
GCGTTCCA	-0.0837
AGGCGAAG	-0.028
CCGCCCAA	-0.195
CTTGTTGA	-0.0181
AATTCTAA	0.0106
ACATTGCT	0.119
TGGGGAAA	-0.0327
CGGTCCTA	-0.103
CAGCATAA	0.0446
GGATTCAA	-0.0815
CCTAAATC	0.154

Sequence	PBM E-score
CATAAAAA	0.14
AAACATCG	-0.078
AACACCTT	-0.00949
GACGAGGC	-0.107
TAGCCACA	0.06
TCTTCCAA	-0.0657
GACGTTCC	0.0709
GAATACTA	0.0721
ATAGGTTA	0.0502
AGTAGACT	-0.0456
CTAGGTTC	-0.263
GGTACACA	-0.239
CACAGATG	-0.172
AATCCGTG	0.0724
CAGGAGAA	-0.104
CGTGCGGA	0.239
ACCCAGAC	-0.0546
ACATTCTC	0.0503
ACACCGCG	-0.0294
CCTGTGAG	-0.0224
GAACCGGC	-0.181
CCTTATCA	0.236
AATCGGCT	-0.0263
GCCCATCC	-0.137
CATTGTGC	-0.115

Sequence	PBM E-score
TACTAACA	0.0524
CGGCGGCC	-0.115
CAAAGTTC	-0.133
CTTATTAA	0.11
CAGGGCAG	-0.073
AGTATTCG	0.141
CGTTCGCC	0.0422
CAGGGGAA	-0.223
CTAGTTTC	0.0114
GAACCGCC	-0.206
TCCCCGGA	-0.0899
CGTAAGGC	0.0323
GAAAATTC	0.171
TCCTCGAA	0.0469
ACCTCGGC	-0.137
ACAGTGCC	0.084
GACTTAGC	-0.0904
ACTTGTAG	-0.0733
AGACGCAT	0.0143
CCATAAAG	-0.213
ATCTTGCC	0.188
CACAATCA	-0.0407
GGATACAC	-0.205
ATCCGCAC	0.025
TAATACTA	0.243

Sequence	PBM E-score
ACTGACTG	-0.262
ACGGAGCC	-0.105
AGGCGTAC	0.096
CCTAATGC	-0.035
AACGGACA	0.0722
CTGATAAC	0.167
ATCTAAAA	-0.0775
ACCCGAAT	-0.00013
CGCACTCC	-0.214
AATTTTTC	0.188
ACAACCGA	-0.0453
CGACCGTC	0.0699
ATTATGCC	0.0573
AGCTACCC	-0.0429
CAGACATG	-0.0504
ATTGAAGA	0.0478
ATCCTCAC	0.0841
AAACCTCG	-0.208
ACAGTCCT	0.181
AATTCACT	-0.102
AGCGCGCG	0.22
GCTCGCTA	-0.212
AGTACCAT	0.0778
AGTGAGAA	0.175
TGGAATAA	-0.0654

Sequence	PBM E-score
ATAGGAGG	-0.189
CTGAGGGC	-0.171
ATAAATAT	0.316
TTACCCAA	-0.17
ACCACACT	-0.125
CGGTATCC	-0.0905
ATCCCTCC	-0.199
CGTGTAAC	0.237
GACGAAGA	0.253
ATAATTGA	0.226
TAGCTTGA	0.0104
CCCTCGCG	-0.184
TAGTGCGA	-0.0822
GAGATTAC	-0.0487
CGCACGGA	0.244
TCGCACCA	-0.133
GCGGCCAC	-0.221
CTACACCC	-0.203
CGGTCGCC	-0.00137
AGTAGAAA	0.168
CAACTTAA	0.201
CCTGTGCG	-0.148
CGATGTTA	0.207
GAAGTAAC	0.0861
CGGGGAAA	0.0305

Exported in markdown: entries from further up.

| Sequence | PBM E-score |
| --- | --- |
| ATGATTCG | 0.083 |
| GAGTTCTA | 0.0306 |
| CAGACGCC | -0.155 |
| ATTTGCAG | 0.147 |
| GCGTTCCA | -0.0837 |
| AGGCGAAG | -0.028 |

The list continues.

Sequence	PBM E-score
TGCCATAA	-0.0485
CACTTACC	-0.018
GTGTGATA	0.327
AGGTTTAT	0.11
GTGCAACA	0.00885
TACCCTAA	-0.147
GCGACATA	0.277
AGGGTACC	-0.0961
ACGGATCC	0.155
GATATGCA	0.203
CAATGTGC	0.0204
ATGATCGA	0.149
AAGATGGC	0.0138
AATTCACC	0.0848
GATATCCC	0.0875
GTCTGGAA	-0.23
GACGTTAC	0.13
AAGGAGCG	-0.302
CATGTTGA	0.236
GCCGTCTA	0.277
AGATTGAT	-0.0616
GCATAGTA	0.0739
AAGACGTG	0.107
TCTTCAAA	-0.105
ATCCCTTA	0.0934

Sequence	PBM E-score
ATCTGTCG	-0.044
CCATGCTA	-0.175
AGGCACGG	0.062
GCCTACCA	-0.211
ATAATGAG	0.117
CACACCTG	-0.19
CTCAGTTC	-0.0408
AAACTGAT	-0.0747
GCTAACAA	0.0186
GGCGTGCA	-0.0867
AAGTCTTA	-0.0436
GTAACAAC	0.165
AACCAGTA	0.00228
CTAACAAA	0.0355
TACACACA	0.007
GTGCATGA	0.214
ACCATAGA	-0.0622
CTCATCGC	0.105
CGTCGATC	0.163
CGGCCAGC	-0.133
AGCCCGAG	-0.236
AGAGCTCT	-0.0826
GGCGATGA	0.248
ACCAGCAC	0.0609
CCAAGCCG	-0.165

Sequence	PBM E-score
AATTGTCG	0.129
CGACGTGC	0.134
ATCGTCTA	0.257
CGAACTTA	0.0969
AAGGAGTA	-0.269
CCTCGAAA	-0.083
AGTCGACA	0.0421
CTTAACTC	0.0297
TATGGCCA	-0.247
AAGGTATA	0.0451
ATCCGCGA	0.158
CACCCACC	-0.113
CCCCAGAA	-0.233
ACCAATGG	-0.235
TAAGCGCA	-0.123
ACTTCCCT	-0.0731
CAGGCGTA	0.00063
CCCAGAGC	-0.185
GGCATACA	-0.128
ACAGTCAC	0.165
TAAGTTGA	0.0496
GGTTCACA	-0.0114
GAGTGCCC	-0.289
ACTTGGCA	-0.199
CGTAGCAG	0.0751

Quoted from the listing.
Value for ACCAATGG under PBM E-score: -0.235
Value for ACTTGGCA under PBM E-score: -0.199
Value for CCCCAGAA under PBM E-score: -0.233
Value for CGTAGCAG under PBM E-score: 0.0751
Value for CTTAACTC under PBM E-score: 0.0297
Value for AATTGTCG under PBM E-score: 0.129

Later entries:

Sequence	PBM E-score
GGACTTCA	-0.0998
ACTTCGCG	0.0559
ACTACAAG	0.0671
AGCCTATG	-0.215
GTTCTCAA	0.0822
CGACGCAC	0.0949
GATGGACC	0.0701
CGTCTGTC	0.151
CTACAAGA	-0.177
AATACTCG	0.146
CGCTTTCA	0.0485
GACATGAA	0.126
CGCGCACG	0.103
CTTCTAAC	0.0034
AACTATAA	0.075
TAAGCCTA	-0.00952
CAGCTCCG	-0.0337
CTCTAACC	-0.259
ATGACCCG	0.0898
GCATACGA	0.0403
CCGCAGAA	0.0228
CATGTAGC	0.172
AAGCGTGC	-0.0316
TCTTTGCA	0.0758
CGTTTTCC	0.119

Sequence	PBM E-score
CATGACCC	-0.0316
CTCAACCC	-0.102
GCCACCAC	-0.119
CACTTGCC	-0.0188
CTCAGGTC	0.0718
CTGCCTAA	-0.0988
GGAACAGA	-0.127
ATTTATGG	0.054
AGCTACTG	-0.0481
TGATTACA	0.189
TAACGCCA	-0.12
CAACCTCC	-0.212
ATGCCTAG	-0.0269
ACCCCTAT	-0.0424
AAGATGAA	-0.083
ATCAAGAA	0.173
AGTATCCA	0.0876
CGATGTGC	-0.0446
CAGTGTGA	-0.0378
GTCAACGA	0.228
CGACCTGC	-0.175
GTGCGTTA	-0.0272
TGATACAA	0.0376
GATGGCCA	0.00452
ACTCCCAC	-0.193

Sequence	PBM E-score
GACAGGAA	0.0498
CACCCTGA	-0.0828
ACCATTCT	0.0166
CTGTATGA	-0.117
ACGTAGAG	0.0878
CGATCCGA	0.103
CTGCGCAA	0.00202
TAACTACA	0.107
CAAAACAC	-0.0784
CACCCTCC	-0.232
CCAGTAGC	0.0513
GATTGTTA	-0.145
CCTCAGCG	-0.0992
AGTGGAAG	-0.17
ATGAACTG	0.165
CCCGACTC	-0.13
AAACCTTC	-0.0946
AACGAGCT	0.0649
AGTACAGC	-0.0838
AAAACCGC	-0.0413
ACTCCTCA	-0.131
AGGTCGTA	0.171
AACAAGTT	-0.122
AGTGCAGA	-0.0854
AAACTCCA	-0.186

Sequence	PBM E-score
ATACAATC	-0.0056
ACGGGGCG	0.137
CATGGCGC	-0.134
CACGACGC	0.172
CGCCCGCC	-0.0519
ACGACTAG	0.0858
AACGCATG	-0.0545
ATACATCG	0.0661
CGCATCCG	-0.188
AGATTTGC	0.0232
ATCCATTA	0.125
ACCATGCG	-0.11
GGGTCGCA	-0.144
ATCGCCAA	-0.098
CGCCTATC	-0.025
GCTCTTGA	-0.288
ATGTCCTC	0.0704
CATTGGTA	-0.133
CTCACACC	-0.133
CGTGTGGC	0.0664
AGTCATGG	0.0847
ACTACCAG	-0.259
CCCTGCTA	-0.0427
GCTATGCC	-0.288
TCTATCAA	0.0435

Sequence	PBM E-score
AATAAAGT	0.128
AGAGAATG	0.121
AGACCGAG	-0.243
GCGAATAA	0.0932
AAGTCCAG	-0.0608
CCAGGGCC	-0.22
GGAATGGA	-0.196
ACTTAAGC	0.121
CGGGACGA	0.173
AAAAAGAG	-0.112
AATTCTAC	0.0797
ACGATAAG	0.243
ACGGGCTA	-0.128
GCTTGCAA	0.0274
TAATCTCA	0.169
CCGCGACG	0.32
ACATGGCG	-0.145
AAGTTAAA	0.143
ATAGGTAG	-0.0453

Some of the entries above, set out differently:
AGAGAATG
  PBM E-score: 0.121
AGACCGAG
  PBM E-score: -0.243
